The results in this text go back to PubChem BioAssay AID2685 (National Center for Advancing Translational Sciences (NCATS), 2010).

One may read the AC50 as the concentration giving half of the maximal activity seen. High values mean weaker potency, low ones greater potency.

This test is described as follows: qHTS Assay for Lipid Storage Modulators in Drosophila S3 Cells.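 On cell number change: cells counted by Cell Tracker Red CMTPX staining in the red channel.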 Particulars: BODIPY lipid droplet fluorescence, 18-24 h; for cell number change: measured here: cell count max response, cells fed with added oleic acid. An outline of the steps:
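Laser-scanning cytometry quantifies lipid droplet accumulation (500–530 nm total intensity; droplet/cell object ratio) in oleic acid-fed (400 uM added) Drosophila S3 cells treated with a concentration series. 20 uM Triacsin C defined 100% inhibition.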
In general terms: Quantitative high-throughput screening tests each substance at several concentrations.

Where [1] appears, read: measured here: cell number channel AC50, cells fed with added oleic acid.
Where [2] appears, read: measured here: lipid fluorescence (Fed channel) AC50, cells fed with added oleic acid.

The list shows a part of the results. The main result of the screen is listed elsewhere. These columns were measured beside it and carry no call. Compounds called inactive in the main read-out are mostly missing here. The note in brackets gives the kind of curve behind each potency; many fits are weak.

For the compound `COCCn1c(SCC(=O)NCc2ccc3c(c2)OCO3)nc2ccccc2c1=O`, the cell number change amounted to 23.8%. Moreover, the half-maximal activity concentration (AC50) under setting [1] is 3.66 µM [rising, single point].
As for `O=C(N/N=C/c1cccc(OC(=O)c2ccccc2Cl)c1)c1cccnc1`, the cell number change is -37.1%. The AC50 under setting [1] was 14.6 µM [falling, single point].
Consider `C=CCN(Cc1nc(-c2ccc(OC)cc2)no1)C(=O)c1ccc2c(c1)OCO2`, for which the cell number change was -4.58%. Under setting [2], the AC50 was 1.16 µM [falling, single point].
As for `O=C(CCN1C(=O)/C(=C/c2ccccc2F)SC1=S)NCCCn1ccnc1`, the cell number change is -56.8%. The AC50 under setting [2] is 29.1 µM [falling, single point].
For the compound `CCCOc1ccc(C(=O)NNC(=O)CCNC(=O)c2ccco2)cc1OC`, the cell number change was found to be 125%. Also, the AC50 under setting [1] was 29.1 µM [rising, single point]. Besides, under setting [2], the AC50 is 0.184 µM [rising, full curve].
As for `O=C(CSc1nnc(Nc2ccccc2)s1)NCc1ccco1`, the cell number change is -13.7%. The AC50 under setting [2] was 7.31 µM [rising, single point].
For the compound `COc1cc(CNC2CCCC2)cc(Cl)c1OCc1ccccc1Cl`, the cell number change is -46.3%. The AC50 under setting [1] is 8.2 µM [falling, partial curve]. Besides, under setting [2], the AC50 is 7.31 µM [falling, partial curve, poor fit].
For `O=C1C2C3C=CC(C3)C2C(=O)N1c1ccc2c(c1)CCC2` (stereo unspecified), the cell number change was found to be 31.9%. Further, the AC50 under setting [1] is 2.31 µM [rising, full curve, poor fit]. The AC50 under setting [2] is 4.61 µM [rising, partial curve, poor fit].
As for `CC(C)(C)NC(=O)C(c1ccc(F)cc1)N(Cc1ccco1)C(=O)CCC(=O)Nc1ccccn1` (stereo unspecified), the cell number change was -2.86%.
As for `CN(C)S(=O)(=O)c1cccc(NC(=O)COC(=O)C2(c3ccccc3F)CCCC2)c1`, under setting [2], the AC50 is 9.2 µM [falling, partial curve].
As for `COc1ccc(OC)c(CCNC(=O)CCn2ccc3cc(S(=O)(=O)N4CCCC4)ccc32)c1`, the cell number change was -0.33%.
As to `CCN1c2ccccc2N(C)C1(C)c1ccccc1` (stereo unspecified), the cell number change was -53.6%. Besides, the AC50 under setting [1] is 13 µM [falling, partial curve]. Moreover, the AC50 under setting [2] is 11.6 µM [falling, partial curve].
Take `O=C(NCc1ccc(Cl)cc1)C(=O)c1c[nH]c2ccccc12`: the cell number change was -12.4%.
As to `Cc1ccc(Cl)cc1N(CC(=O)N1CCOCC1)S(C)(=O)=O`, the cell number change amounted to 28.5%. Under setting [2], the AC50 is 29.1 µM [rising, single point].
Consider `CCOc1ccccc1NC(=O)CN1C(=O)C(C)SC(C)C1=O` (stereo unspecified), for which the cell number change amounted to 1.82%.
For `O=C(NC1CCCCC1)N1CCN(c2ccccc2Cl)CC1`, the cell number change was -8.91%. Also, the AC50 under setting [2] is 29.1 µM [falling, single point].
Regarding `O=C(CN(C(=O)Cn1nnc(-c2cccs2)n1)c1ccc2c(c1)OCCO2)NCC1CCCO1` (stereo unspecified), the cell number change was -25.2%. Further, the concentration at half-maximal activity (AC50) under setting [1] was 3.66 µM [falling, full curve, poor fit]. The AC50 under setting [2] was 29.1 µM [rising, single point].
In the case of `O=C(Nc1ccccc1)c1cc2ccccc2[nH]1`, the cell number change worked out at 17.2%. Also, under setting [2], the AC50 was 16.4 µM [rising, single point].
For `CC1CN(Cc2cc(=O)[nH]c(C(C)C)n2)CC(C)O1` (stereo unspecified), the cell number change was -7.46%. For the same compound, the AC50 under setting [2] is 0.116 µM [falling, full curve, poor fit].
Consider `CCC(=O)N(C)CCc1cc2c(c(OC)c1/C=N/NC(=O)c1ccccc1O)OCO2`, for which the AC50 is, setting by setting: under setting [1], 6.51 µM [rising, partial curve]; under setting [2], 0.0206 µM [rising, full curve, poor fit].
Turning to `Cc1ccc(-c2cc(C(F)(F)F)nc(SCC(=O)c3cccc([N+](=O)[O-])c3)n2)cc1`, the cell number change is 17.8%. For the same compound, under setting [2], the AC50 is 8.2 µM [rising, partial curve].
Take `c1ccc(Cn2nnc3c(NCC4CCCO4)nc(C4CC4)nc32)cc1` (stereo unspecified): the cell number change was determined as 93.3%. The AC50 under setting [1] is 8.2 µM [rising, partial curve]. Further, under setting [2], the AC50 was 29.1 µM [rising, single point].
With `CCN(C(=O)CSc1nnc(-c2ccco2)n1Cc1ccccc1)C1CCS(=O)(=O)C1` (stereo unspecified), the cell number change is -8.65%. Further, under setting [2], the AC50 was 14.6 µM [falling, single point].
As to `CCOc1ccc(-c2nnn(CC(=O)NCCc3c[nH]c4ccccc34)n2)cc1`, the cell number change came to 1.43%. Moreover, under setting [1], the AC50 was 1.64 µM [rising, partial curve]. Under setting [2], the AC50 is 2.31 µM [rising, partial curve].
For the compound `Cc1ccc(C(=O)c2c3ccc([N+](=O)[O-])cc3[n+]([O-])n2CCCN)cc1`, the cell number change was -2.9%.
Take `O=C1CC(c2ccco2)CC(O)=C1C=Nc1cc(Cl)ccc1O` (stereo unspecified): the cell number change is -0.271%. The AC50 under setting [2] was 0.092 µM [falling, full curve, poor fit].
With `N#CCc1ccc(C(=O)c2ccccc2)s1`, the cell number change amounted to 72.4%. The AC50 under setting [1] was 23.1 µM [rising, partial curve, poor fit]. In addition, the AC50 under setting [2] was 5.8 µM [rising, full curve].
As to `COc1ccc(Br)c(C(=O)OCc2cc(=O)oc3cc(C)ccc23)c1`, the cell number change amounted to 14.1%. Further, the AC50 under setting [2] is 16.4 µM [falling, partial curve].
Regarding `NC(=O)c1ccc(-n2nnnc2SCC(=O)Nc2ccc(N3CCOCC3)c(Cl)c2)cc1`, the AC50 under setting [2] is 0.13 µM [falling, full curve, poor fit].
Regarding `COc1ccc(C(=O)CCN2CCCCCC2)cc1`, the cell number change is -33.4%. Also, the AC50 under setting [1] was 32.6 µM [falling, single point]. Further, the concentration at half-maximal activity (AC50) under setting [2] is 32.6 µM [falling, partial curve].
As to `Cc1cc(F)ccc1S(=O)(=O)Nc1ccccc1C(=O)N1CCCC1`, the cell number change is -3.24%. Also, the AC50 under setting [2] was 20.6 µM [rising, partial curve].
For the compound `CN(C(=O)CSc1ncnc2sc3c(c12)CCC3)C1CCS(=O)(=O)C1` (stereo unspecified), the cell number change is -14%. In addition, the concentration at half-maximal activity (AC50) under setting [2] is 0.82 µM [falling, single point].
Consider `Cc1cc2[nH]c(=O)c(=O)[nH]c2cc1S(=O)(=O)N1CCC(C)CC1`, for which the cell number change came out at 3.75%. Moreover, the AC50 under setting [1] was 0.461 µM [rising, single point]. Moreover, the AC50 under setting [2] is 2.59 µM [falling, partial curve, poor fit].
Take `Cc1nc(C)c(C(=O)O)c(-c2ccsc2)c1C(=O)O`: the cell number change is -35.5%. Moreover, under setting [1], the AC50 was 4.61 µM [falling, partial curve, poor fit]. For the same compound, under setting [2], the half-maximal activity concentration (AC50) is 3.66 µM [falling, single point].
In the case of `Cc1c(NC(C)C)c(=O)n(-c2ccccc2)n1C`, the cell number change is -29.6%. Further, the AC50 under setting [1] is 1.46 µM [falling, full curve, poor fit]. For the same compound, the AC50 under setting [2] was 5.8 µM [falling, full curve].
Take `Oc1ccc(N2Cc3ccccc3C2)cc1`: the cell number change was -2.59%. Besides, the AC50 under setting [2] was 0.103 µM [rising, full curve, poor fit].
As to `COc1ccc2ccccc2c1C1CC(=O)N2CN(C3CCCCC3)CSC2=C1C#N` (stereo unspecified), the cell number change came out at 39.9%. The AC50 under setting [1] was 6.51 µM [rising, single point]. The AC50 under setting [2] is 6.51 µM [rising, single point].
Consider `CC1(C)NC(=O)N(CCCCSc2ccc(Cl)cc2)C1=O`, for which the cell number change is -32.2%. Also, the half-maximal activity concentration (AC50) under setting [1] was 20.6 µM [falling, single point]. In addition, the AC50 under setting [2] was 23.1 µM [falling, single point].
For `COc1ccc(OC)c(NC(=S)NN2CCN(C)CC2)c1`, the cell number change came to 48.2%. Also, the AC50 under setting [1] is 20.6 µM [rising, single point]. For the same compound, under setting [2], the AC50 is 18.4 µM [rising, single point].
Regarding `COc1cc(C)c(CN2CCC(Cc3ccccc3)CC2)cc1C`, the cell number change is -17.7%. In addition, the half-maximal activity concentration (AC50) under setting [2] was 29.1 µM [falling, single point].
For the compound `CCOc1ccc(Nc2ncnc3c2cnn3C)cc1`, the cell number change was -14.6%.
For the compound `CCc1nc(C)cn1S(=O)(=O)c1cc([N+](=O)[O-])ccc1Cl`, the cell number change was 0.118%. Also, the AC50 under setting [1] was 4.11 µM [falling, single point].
`[O-][n+]1c2ccccc2c2n1CCN=C2c1ccc(Cl)cc1`: the cell number change amounted to 20.9%. Further, under setting [2], the AC50 is 4.11 µM [rising, partial curve].
Turning to `COC(=O)c1ccc(COc2ncnc3sccc23)cc1`, the AC50 under setting [1] is 0.103 µM [rising, full curve, poor fit].
For the compound `CO/N=C/NC(=O)C1=NOC(CNc2ncc(C(F)(F)F)cc2Cl)C1` (stereo unspecified), the AC50 by setting is: under setting [1], 0.13 µM [falling, full curve, poor fit]; under setting [2], 0.0103 µM [falling, full curve, poor fit].
As for `Cc1[nH]c2ccc(F)cc2c(=O)c1SC(F)(F)C(F)C(F)(F)F` (stereo unspecified), the AC50 runs as follows: under setting [1], 1.3 µM [rising, full curve]; under setting [2], 0.411 µM [rising, full curve].
With `COc1ccc(-c2cnnc(N/N=C/c3ccc(O)c(O)c3)n2)cc1`, the cell number change is -18.4%. For the same compound, the AC50 under setting [2] is 29.1 µM [falling, single point].
Take `O=C(NCc1ccccc1)C1CCCN(C(=O)c2ccc(F)cc2)C1` (stereo unspecified): the cell number change is -85.2%. Besides, the AC50 under setting [1] is 25.9 µM [falling, partial curve]. For the same compound, the AC50 under setting [2] was 1.64 µM [falling, partial curve].
In the case of `Cn1c(SCC(=O)N/N=C/c2ccc([N+](=O)[O-])s2)nnc1-c1ccccc1`, the cell number change was -43%. The AC50 under setting [1] was 14.6 µM [falling, partial curve, poor fit].
Consider `CCN1C(=O)[C@H]2[C@@H](c3ccc(-c4ccc(Cl)c(Cl)c4)cc3)N[C@@](Cc3ccccc3)(C(=O)OC)[C@H]2C1=O`, for which the cell number change worked out at 15.6%. Besides, the AC50 under setting [2] is 0.651 µM [rising, single point].
For the compound `Cc1ccc(Cc2c(C)nc3nc(SCC(=O)NCc4ccco4)nn3c2C)cc1`, the cell number change amounted to 27.4%. Besides, the AC50 under setting [2] is 16.4 µM [rising, single point].
On to `Cc1onc(-c2ccccc2Cl)c1C(=O)Nc1ccc(-n2nncc2C(C)(C)C)cc1`, for which, under setting [2], the AC50 is 6.51 µM [rising, single point].
In the case of `Cc1cccc(OCCCC(=O)NCCc2ccccc2)c1`, the cell number change stood at 2.35%. Moreover, under setting [2], the AC50 is 16.4 µM [rising, single point].
`CCN(Cc1ccccc1)S(=O)(=O)c1ccc(S(=O)(=O)N(Cc2cccc(OC)c2)CC2CCCO2)cc1` (stereo unspecified): under setting [1], the AC50 is 1.3 µM [rising, partial curve, poor fit].
Regarding `O=C(O)C1CCCCC1C(=O)Nc1ccc(F)c(F)c1` (stereo unspecified), the cell number change was determined as 107%. Besides, under setting [1], the AC50 is 20.6 µM [rising, single point]. In addition, the AC50 under setting [2] was 0.58 µM [falling, partial curve, poor fit].
